Measurements reported in PMC2821923.
Numbering of substitutions follows the chain as printed. In names and notes the source's numbering stands. No constants are given. Whether binding was seen depends on the method and setting. In cells and extracts the contact can be indirect. Some results given as binding are weak or reduced against the parent protein; the word gives no strength. Tags and fused reporters may be left off the sequences shown. One block for each binder: values may come before it.

By UniProt entry, the sequences of proteins in these tests, tags left out.
UniProt P69853: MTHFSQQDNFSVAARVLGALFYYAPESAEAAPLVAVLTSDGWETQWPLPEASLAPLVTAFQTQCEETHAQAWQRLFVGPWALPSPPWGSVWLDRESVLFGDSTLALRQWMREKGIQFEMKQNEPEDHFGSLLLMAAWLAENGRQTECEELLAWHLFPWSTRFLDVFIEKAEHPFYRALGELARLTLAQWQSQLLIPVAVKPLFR

Tests used:
Assay in all cases: split reporter; split YFP BiFC in living TG1 ΔtatABCE cells (TatA also in ΔtatAE, TatB/TatC also in ΔtatB and ΔtatC); median fluorescence by flow cytometry against unfused Y1 or Y2 controls, fluorescence microscopy
[1] = target: T1, TatA fused to a YFP fragment (TatA-Y1; TatA-Y2) (E. coli) (UniProt P69428)
T1 sequence: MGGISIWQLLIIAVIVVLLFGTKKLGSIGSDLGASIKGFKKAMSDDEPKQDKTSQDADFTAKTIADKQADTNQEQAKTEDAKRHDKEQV

[2] = target: T2, TatC fused to a YFP fragment (TatC-Y1; TatC-Y2) (E. coli) (UniProt P69423)
T2 sequence: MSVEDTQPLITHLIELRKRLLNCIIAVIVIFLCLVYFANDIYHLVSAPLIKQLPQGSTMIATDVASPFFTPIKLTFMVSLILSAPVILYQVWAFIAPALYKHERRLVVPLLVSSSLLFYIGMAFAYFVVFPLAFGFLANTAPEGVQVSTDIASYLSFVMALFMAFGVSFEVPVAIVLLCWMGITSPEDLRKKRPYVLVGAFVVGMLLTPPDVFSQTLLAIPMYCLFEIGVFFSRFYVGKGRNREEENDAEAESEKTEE

[3] = target: DmsD fused to a YFP fragment (DmsD-Y2; DmsD-Y1) (E. coli) (UniProt P69853)
[4] = target: T3, TatB fused to a YFP fragment (TatB-Y1; TatB-Y2) (E. coli) (UniProt P69425)
T3 sequence: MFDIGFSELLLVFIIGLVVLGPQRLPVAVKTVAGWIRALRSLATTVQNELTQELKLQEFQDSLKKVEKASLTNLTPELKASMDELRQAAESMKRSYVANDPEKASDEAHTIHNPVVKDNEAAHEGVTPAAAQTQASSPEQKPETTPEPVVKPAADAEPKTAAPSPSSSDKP

[5] = target: T4, TatC(E103R) fused to a YFP fragment (E103R-Y1; E103R-Y2) (E. coli) (UniProt P69423)
T4 sequence: T2 sequence with E103R

[6] = target: T5, TatC(P48A) fused to a YFP fragment (P48A-Y1; P48A-Y2) (E. coli) (UniProt P69423)
T5 sequence: T2 sequence with P48A

[7] = target: T6, TatC fused to a YFP fragment (TatC-Y1; TatC-Y2) (E. coli), P69423; conditions: remark: other sources report otherwise
T6 chain: T2 sequence

binding [1]: binds
B1: TatA(F39A) fused to a YFP fragment (F39A-Y1; F39A-Y2) (protein, UniProt P69428 1-89)
chain: T1 sequence with F39A

binding [2]: binds
B2: TatA fused to a YFP fragment (TatA-Y1; TatA-Y2) (protein, UniProt P69428 1-89)
chain: T1 sequence

binding [3]: binds | binding [4]: binds | binding [2]: binds | binding [5]: binds | binding [6]: binds
B3: TatB fused to a YFP fragment (TatB-Y1; TatB-Y2) (protein, UniProt P69425 1-171)
chain: T3 sequence

binding [3]: binds | binding [1]: binds | binding [4]: binds
B4: TatC fused to a YFP fragment (TatC-Y1; TatC-Y2) (protein, UniProt P69423 1-258)
chain: T2 sequence

binding [7]: no binding
B5: TatC fused to a YFP fragment (TatC-Y1; TatC-Y2), P69423 1-258 (protein)
chain: T2 sequence
